These results are taken from PMC3724861.

For the data set, the target named is T1, Caup homeodomain (Drosophila melanogaster) (UniProt P54269).
T1 sequence (looked up): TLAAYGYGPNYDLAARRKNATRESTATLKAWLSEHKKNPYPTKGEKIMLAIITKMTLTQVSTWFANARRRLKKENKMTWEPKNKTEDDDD
The data set can be described thus: binding assay. As to conditions: PBM, protein translated in vitro, residues 214-303, only the motif is given.

Whether high values mean tight binding is not given here for every scale. Where a protein sequence is shown, tags need not be part of it.

“AAACGCCAT (double strand) [9-mer AAACGCCAT]” registered a binding signal (minimum E-score of the two 8-mers) of -0.015.

“AATTTTAGA (double strand) [9-mer AATTTTAGA]” gave a binding signal (minimum E-score of the two 8-mers) of 0. Same read-out and setting: with “ACAGGCAAC (double strand) [9-mer ACAGGCAAC]” the figure was -0.03.

“AGGGGTGGG (double strand) [9-mer AGGGGTGGG]” yielded a binding signal (minimum E-score of the two 8-mers) (counted as no binding) of -0.155. In turn, “CACAGACGG (double strand) [9-mer CACAGACGG]” registered a binding signal (minimum E-score of the two 8-mers) of -0.044. “CCTACGTTC (double strand) [9-mer CCTACGTTC]” showed a binding signal (minimum E-score of the two 8-mers) of -0.119.

As to “CGATGCTTC (double strand) [9-mer CGATGCTTC]”, the binding signal (minimum E-score of the two 8-mers) is -0.073. With “CGGAGCTGC (double strand) [9-mer CGGAGCTGC]”, for the setting “counted as no binding”, the binding signal (minimum E-score of the two 8-mers) is -0.245. As to “CGTCAGCCA (double strand) [9-mer CGTCAGCCA]”, the binding signal (minimum E-score of the two 8-mers) was -0.088. Same read-out and setting: with “GACCTGTGA (double strand) [9-mer GACCTGTGA]” the figure was -0.058. For the sequence “GGAAGTGCC (double strand) [9-mer GGAAGTGCC]”, the binding signal (minimum E-score of the two 8-mers) (counted as no binding) was -0.177.

Turning to “GGCCCCCCA (double strand) [9-mer GGCCCCCCA]”, the binding signal (minimum E-score of the two 8-mers) (counted as no binding) is -0.448. The same measure, in the same setting: as for “GGCCGAACC (double strand) [9-mer GGCCGAACC]”, the figure is -0.204; as for “GTGGCACGA (double strand) [9-mer GTGGCACGA]”, -0.136. The sequence “TCCCCATAA (double strand) [9-mer TCCCCATAA]” displayed a binding signal (minimum E-score of the two 8-mers) of -0.104.
